Source: publication doi:10.1101/2020.04.03.023721
These are yes or no findings as the source states them, for the method shown. In cells and extracts the contact can be indirect. Some results given as binding are weak or reduced against the parent protein; the word gives no strength. For part of these data: Where a sequence is shown, tags or fusion partners need not be part of it.

Sequences of proteins named here, by UniProt entry; tags and fusion partners are left off.
UniProt P29466: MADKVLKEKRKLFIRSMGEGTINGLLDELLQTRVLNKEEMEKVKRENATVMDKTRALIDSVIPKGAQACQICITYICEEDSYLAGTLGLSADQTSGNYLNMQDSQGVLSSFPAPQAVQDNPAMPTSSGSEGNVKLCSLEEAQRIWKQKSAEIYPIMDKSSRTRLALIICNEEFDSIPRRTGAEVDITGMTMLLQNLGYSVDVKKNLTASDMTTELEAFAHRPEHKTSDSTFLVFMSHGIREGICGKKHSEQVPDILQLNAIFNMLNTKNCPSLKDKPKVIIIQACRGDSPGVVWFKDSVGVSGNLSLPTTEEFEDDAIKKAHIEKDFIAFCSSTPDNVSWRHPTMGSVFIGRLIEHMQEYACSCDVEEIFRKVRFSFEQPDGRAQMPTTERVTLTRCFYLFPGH
UniProt Q96P20: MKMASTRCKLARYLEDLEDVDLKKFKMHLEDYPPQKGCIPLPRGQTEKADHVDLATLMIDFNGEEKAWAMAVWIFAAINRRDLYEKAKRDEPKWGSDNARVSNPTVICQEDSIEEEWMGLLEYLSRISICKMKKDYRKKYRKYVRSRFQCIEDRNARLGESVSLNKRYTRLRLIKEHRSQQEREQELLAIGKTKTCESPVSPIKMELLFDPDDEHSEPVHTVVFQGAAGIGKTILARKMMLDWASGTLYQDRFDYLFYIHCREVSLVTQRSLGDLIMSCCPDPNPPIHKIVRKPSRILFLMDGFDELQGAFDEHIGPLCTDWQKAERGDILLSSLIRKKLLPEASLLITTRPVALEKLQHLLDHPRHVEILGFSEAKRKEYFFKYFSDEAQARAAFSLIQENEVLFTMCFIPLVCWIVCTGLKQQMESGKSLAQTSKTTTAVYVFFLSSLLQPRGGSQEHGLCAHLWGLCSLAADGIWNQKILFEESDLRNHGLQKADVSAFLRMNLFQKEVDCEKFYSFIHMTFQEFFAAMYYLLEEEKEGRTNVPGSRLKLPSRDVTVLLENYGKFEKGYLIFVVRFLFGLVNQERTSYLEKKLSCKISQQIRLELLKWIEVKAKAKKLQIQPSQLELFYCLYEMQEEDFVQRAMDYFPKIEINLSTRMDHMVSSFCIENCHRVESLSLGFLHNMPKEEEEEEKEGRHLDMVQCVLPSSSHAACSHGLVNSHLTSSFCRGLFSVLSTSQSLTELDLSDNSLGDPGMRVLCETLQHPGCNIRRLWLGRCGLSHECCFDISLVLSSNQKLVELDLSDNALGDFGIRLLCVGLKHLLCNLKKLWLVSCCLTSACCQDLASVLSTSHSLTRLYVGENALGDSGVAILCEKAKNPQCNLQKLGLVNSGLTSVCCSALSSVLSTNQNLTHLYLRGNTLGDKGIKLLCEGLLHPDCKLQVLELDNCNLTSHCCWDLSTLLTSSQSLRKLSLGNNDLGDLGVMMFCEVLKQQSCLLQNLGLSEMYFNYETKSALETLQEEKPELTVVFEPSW
UniProt P49023: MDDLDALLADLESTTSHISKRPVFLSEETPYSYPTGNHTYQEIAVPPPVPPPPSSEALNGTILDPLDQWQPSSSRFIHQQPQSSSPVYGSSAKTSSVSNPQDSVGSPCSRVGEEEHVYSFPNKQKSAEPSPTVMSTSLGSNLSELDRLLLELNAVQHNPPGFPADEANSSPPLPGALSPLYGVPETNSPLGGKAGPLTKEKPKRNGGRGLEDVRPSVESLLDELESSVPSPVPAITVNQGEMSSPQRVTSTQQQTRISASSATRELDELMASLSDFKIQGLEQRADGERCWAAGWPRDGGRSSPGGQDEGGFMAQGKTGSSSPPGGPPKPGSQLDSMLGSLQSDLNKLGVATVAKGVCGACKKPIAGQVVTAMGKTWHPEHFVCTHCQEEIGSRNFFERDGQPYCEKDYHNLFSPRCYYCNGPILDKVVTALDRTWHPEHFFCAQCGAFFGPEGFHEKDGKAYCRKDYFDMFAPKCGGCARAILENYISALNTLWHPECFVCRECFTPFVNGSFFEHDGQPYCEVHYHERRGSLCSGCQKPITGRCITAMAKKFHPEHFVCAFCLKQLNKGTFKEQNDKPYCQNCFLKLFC

Experiments:
Experiment in all cases: co-IP
[1] = molecular target: T1, Flag-UPS13(625-863) (human) (UniProt Q92995)
T1 sequence: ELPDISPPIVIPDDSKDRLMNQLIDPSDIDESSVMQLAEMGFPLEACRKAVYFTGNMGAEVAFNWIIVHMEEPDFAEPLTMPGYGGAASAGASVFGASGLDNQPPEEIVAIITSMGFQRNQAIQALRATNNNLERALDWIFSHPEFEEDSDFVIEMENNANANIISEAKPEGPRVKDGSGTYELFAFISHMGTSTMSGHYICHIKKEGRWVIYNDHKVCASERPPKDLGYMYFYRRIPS

[2] = molecular target: Flag-Casp-1 (human) (UniProt P29466)
[3] = molecular target: Flag-NLRP3 (human) (UniProt Q96P20)
[4] = molecular target: T2, Flag-UPS13(1-300) (human) (UniProt Q92995)
T2 sequence: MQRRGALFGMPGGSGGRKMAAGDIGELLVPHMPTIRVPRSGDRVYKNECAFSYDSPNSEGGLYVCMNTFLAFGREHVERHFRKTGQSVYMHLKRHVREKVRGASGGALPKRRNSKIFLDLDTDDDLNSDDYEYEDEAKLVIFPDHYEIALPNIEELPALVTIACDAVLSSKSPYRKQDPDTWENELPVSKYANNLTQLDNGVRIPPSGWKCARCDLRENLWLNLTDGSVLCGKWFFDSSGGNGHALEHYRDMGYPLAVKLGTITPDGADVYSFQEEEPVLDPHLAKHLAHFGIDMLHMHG

[5] = molecular target: T3, Flag-P2X7(26-595) (UniProt Q99572)
T3 sequence: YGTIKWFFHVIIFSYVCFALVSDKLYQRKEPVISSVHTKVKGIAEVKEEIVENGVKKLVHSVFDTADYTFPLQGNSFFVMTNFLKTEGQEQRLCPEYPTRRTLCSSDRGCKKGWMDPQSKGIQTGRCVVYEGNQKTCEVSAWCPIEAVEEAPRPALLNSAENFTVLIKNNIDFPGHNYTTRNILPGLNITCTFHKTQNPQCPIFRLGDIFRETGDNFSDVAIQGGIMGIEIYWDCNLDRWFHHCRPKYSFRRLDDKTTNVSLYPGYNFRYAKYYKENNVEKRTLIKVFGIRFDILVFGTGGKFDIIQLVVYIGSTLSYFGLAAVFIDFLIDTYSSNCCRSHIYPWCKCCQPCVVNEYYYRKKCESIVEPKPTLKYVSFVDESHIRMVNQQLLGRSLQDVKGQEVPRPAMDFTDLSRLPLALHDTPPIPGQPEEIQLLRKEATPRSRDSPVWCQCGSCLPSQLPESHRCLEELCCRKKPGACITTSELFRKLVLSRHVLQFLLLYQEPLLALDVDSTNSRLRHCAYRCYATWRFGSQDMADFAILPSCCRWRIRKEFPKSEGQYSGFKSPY

[6] = molecular target: T4, Flag-P2X7(33-595) (UniProt Q99572)
T4 sequence: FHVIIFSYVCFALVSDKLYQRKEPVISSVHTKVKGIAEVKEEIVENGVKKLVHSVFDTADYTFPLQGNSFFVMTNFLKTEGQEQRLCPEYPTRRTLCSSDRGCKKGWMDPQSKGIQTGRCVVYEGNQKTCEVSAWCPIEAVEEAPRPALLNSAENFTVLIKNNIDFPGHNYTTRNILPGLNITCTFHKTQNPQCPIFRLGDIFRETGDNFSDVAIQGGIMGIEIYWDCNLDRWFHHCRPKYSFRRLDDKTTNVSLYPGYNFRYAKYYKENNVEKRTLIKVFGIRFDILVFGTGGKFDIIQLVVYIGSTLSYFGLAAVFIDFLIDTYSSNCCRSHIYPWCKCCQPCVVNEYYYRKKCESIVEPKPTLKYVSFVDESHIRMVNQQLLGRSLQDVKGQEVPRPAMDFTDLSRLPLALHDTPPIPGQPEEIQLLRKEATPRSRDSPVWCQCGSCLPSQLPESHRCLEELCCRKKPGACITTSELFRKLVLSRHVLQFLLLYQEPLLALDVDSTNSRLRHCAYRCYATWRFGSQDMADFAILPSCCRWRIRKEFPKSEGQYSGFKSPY

Measured: binding

HA-Paxillin (from UniProt P49023 1-591)
binds: [3] | [4] | [5]
no binding: all other assays above
